Values quoted from earlier work as cited in patent publication US20040138156A1, “Therapeutic regulation of deoxyribonuclease-1-like-3 activity” (priority 2002, published 2004).
For at least one compound, name, drawing or mass did not settle the structure.

Tested on: D1L3
Conditions: cited from earlier work

Compound: O=C(O)C1=CC(=C(c2ccc(O)c(C(=O)O)c2)c2ccc(O)c(C(=O)O)c2)C=CC1=O [aurintricarboxylic acid]
- effect on D1L3 DNASE activity: block D1L3 DNASE activity
